Test results published in article doi:10.1101/2020.12.23.424112.
No constants are given. Whether binding was seen depends on the method and setting. In cells and extracts the contact can be indirect. Some binding calls cover weakened binding; strength is not graded here. Where a sequence is shown, tags or fusion partners need not be part of it. Each block holds one binder with its values, some of them ahead of it.

Amino acid sequences for entries named in this document (tags omitted).
UniProt P16370: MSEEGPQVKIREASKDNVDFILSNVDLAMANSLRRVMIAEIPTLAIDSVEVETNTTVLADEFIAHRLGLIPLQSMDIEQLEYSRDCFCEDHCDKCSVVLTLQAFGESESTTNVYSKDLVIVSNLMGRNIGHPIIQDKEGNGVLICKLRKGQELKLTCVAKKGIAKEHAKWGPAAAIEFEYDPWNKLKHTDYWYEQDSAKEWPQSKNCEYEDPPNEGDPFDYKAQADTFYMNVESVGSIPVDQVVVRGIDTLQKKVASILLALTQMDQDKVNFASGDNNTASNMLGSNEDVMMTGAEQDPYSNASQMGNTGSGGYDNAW

Molecular target: Rpb3 subunit of RNA pol II (S. cerevisiae) (UniProt P16370)
Test: co-IP

binding: binds
B1: Bud27 TAP-tagged version (prefoldin-like Bud27) (protein, UniProt P43573 1-796)
chain: MDLLAASVESTLKNLQDKRNFLSEQREHYIDIRSRLVRFINDNDDGEEEGEGQGMVFGDIIISTSKIYLSLGYEYYVEKTKEEAITFVDDKLKLMEDAIEQFNLKIEEAKKTLDNLNHMEDGNGIEEDEANNDEDFLPSMEIREELDDEGNVISSSVTPTTKQPSQSNSKKEQTPAVGPKEKGLAKEKKSKSFEENLKGKLLKRNDEVKKKVQPSKVDTENVYTFADLVQQMDQQDELEDGYIETDEINYDYDAFENSNFKVNDNYEEDDEDEDEEEYLNHSIIPGFEAQSSFLQQIQRLRAQKQSQDHEREEGDVNKSLKPILKKSSFAENSDKKQKKKQVGFASSLEIHEVENLKEENKRQMQSFAVPMYETQESTGIANKMTSDEFDGDLFAKMLGVQEADEVHEKYKEELINQERLEGEASRSNRRTRVSRFRKDRASKKENTLSTFKQETTRSVENEVVEKEPVVGDIIEKEPVVGDVIEKEPVVGDVIEKEPAVTDIVEREPAVNDIVERKPVVGDIIEKEPTINDIVEKEPEINSKSEFETPFKKKKLKSLQKPRSSKSMKKKFDPKILENISDDDYDDDDDGNKKLLSNKSKNNTDEQDKFPSKIQEVSRSMAKTGATVGSEPVRITNVDYHALGGNLDDMVKAYSLGLYDDDLEEDPGTIVEKLEDFKEYNKQVELLRDEIRDFQLENKPVTMEEEENDGNVMNDIIEHEFPESYTNDEDEVALHPGRLQEEVAIEYRRLKEATASKWQSSSPAAHTEGELEPIDKFGNPVKTSRFRSQRLHMDSKP

binding: binds
B2: Rtr1 TAP-tagged (RNA pol II CTD Ser5P phosphatase Rtr1) (protein, UniProt P40084 1-226)
chain: MATIEDIKETALIPFQKHRQLSMHEAEVITLEIIGLLCDSECKDEKTLKYLGRFLTPDMYQDLVDERNLNKRCGYPLCGKSPERIRDPFSMNDTTKKFLLENNPYAYLSHYCSKFHFRCSQFYQVQLSDEALFARTGVHLFEDPEQDKHDIDFKVTLFEELLREKASEEDIKSLISGLKKLGLNPDSGTTEKDDTELEDDLSKWLAQIKIVENDNPSILGDFTRED
